PMC10997846
No constants are given. Whether binding was seen depends on the method and setting. In cells and extracts the contact can be indirect. Some binding calls cover weakened binding; strength is not graded here.

By UniProt entry, the sequences of proteins in these tests, tags left out.
UniProt O60262: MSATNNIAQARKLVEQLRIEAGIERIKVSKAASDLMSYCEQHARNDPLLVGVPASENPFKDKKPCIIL

Biological target: T1, R-spondin 3 (human (endogenous in AGS or MKN45 gastric cancer cells)) (UniProt Q9BXY4)
T1 sequence: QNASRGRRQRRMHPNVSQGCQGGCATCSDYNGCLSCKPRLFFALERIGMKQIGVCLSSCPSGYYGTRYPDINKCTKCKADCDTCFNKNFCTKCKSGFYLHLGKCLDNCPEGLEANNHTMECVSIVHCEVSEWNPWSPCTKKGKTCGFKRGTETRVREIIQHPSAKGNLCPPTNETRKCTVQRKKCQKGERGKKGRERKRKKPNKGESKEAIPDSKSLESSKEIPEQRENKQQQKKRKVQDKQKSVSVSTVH
Assay: co-IP; IP and western blotting from cellular lysate (CoIP kit, Protein A + G Agarose, 4°C)

G protein subunit gamma 7 (from UniProt O60262 1-68)
binding: binds
